Common to all, as to conditions: yeast three-hybrid, YBZ-1, SC-Leu-His + 0.5 mM 3-AT, 4 days
Test [1] concerns the target T1, PUM1 PUF domain R1-QFR R2-VFQ R7-NPG S863Q + R864F + Q867R + N899V + Y900F + S1079N + N1080P + E1083G (UniProt Q14671).
T1 sequence: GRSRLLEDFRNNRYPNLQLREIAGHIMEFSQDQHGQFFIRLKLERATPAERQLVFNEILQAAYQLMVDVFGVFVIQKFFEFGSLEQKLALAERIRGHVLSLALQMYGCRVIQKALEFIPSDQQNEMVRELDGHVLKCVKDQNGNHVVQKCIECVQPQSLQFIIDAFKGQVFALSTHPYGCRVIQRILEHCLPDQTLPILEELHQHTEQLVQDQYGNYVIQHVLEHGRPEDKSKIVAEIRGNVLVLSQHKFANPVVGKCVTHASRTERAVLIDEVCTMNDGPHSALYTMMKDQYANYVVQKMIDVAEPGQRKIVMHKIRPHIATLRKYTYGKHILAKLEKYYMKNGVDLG

The target in test [2] is T2, PUM1 PUF domain R3-THE R4-TFR C935T + R936H + Q939E + N971T + H972F + Q975R (UniProt Q14671).
T2 sequence: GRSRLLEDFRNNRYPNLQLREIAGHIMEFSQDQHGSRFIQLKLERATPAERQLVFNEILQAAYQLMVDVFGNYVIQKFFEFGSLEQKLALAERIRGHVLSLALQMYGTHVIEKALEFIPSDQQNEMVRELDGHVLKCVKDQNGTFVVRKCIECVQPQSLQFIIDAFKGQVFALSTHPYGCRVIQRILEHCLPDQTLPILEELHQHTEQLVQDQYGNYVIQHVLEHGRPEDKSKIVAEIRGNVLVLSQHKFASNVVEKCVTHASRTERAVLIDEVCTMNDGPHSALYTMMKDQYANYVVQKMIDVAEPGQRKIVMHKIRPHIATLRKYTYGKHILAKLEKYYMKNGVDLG

Test [3] has as its target T3, PUM1 PUF domain R3-THE R4-TFR R7-NPG C935T + R936H + Q939E + N971T + H972F + Q975R + S1079N + N1080P + E1083G (Homo sapiens) (UniProt Q14671).
T3 sequence: T2 sequence with S252N, N253P, E256G

Test [4] addresses T4, PUM1 PUF domain R5-PHQ R6-SWD C1007P + R1008H + N1043S + Y1044W + Q1047D (UniProt Q14671).
T4 sequence: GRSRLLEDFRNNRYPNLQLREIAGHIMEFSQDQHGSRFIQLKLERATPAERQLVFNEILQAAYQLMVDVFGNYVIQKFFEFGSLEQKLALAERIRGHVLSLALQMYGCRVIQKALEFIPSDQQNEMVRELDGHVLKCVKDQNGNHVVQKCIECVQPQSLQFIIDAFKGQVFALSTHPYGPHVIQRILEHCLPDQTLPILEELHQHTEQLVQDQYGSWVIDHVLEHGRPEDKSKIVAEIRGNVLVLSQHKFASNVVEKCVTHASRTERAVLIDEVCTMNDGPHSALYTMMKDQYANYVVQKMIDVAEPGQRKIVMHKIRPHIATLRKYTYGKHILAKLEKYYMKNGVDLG

The target of test [5] is T5, PUM1 PUF domain R6-SWD R7-NPG N1043S + Y1044W + Q1047D + S1079N + N1080P + E1083G (Homo sapiens) (UniProt Q14671).
T5 sequence: T4 sequence with P180C, H181R, S252N, N253P, E256G

Test [6] has as its target T6, PUM1 PUF domain R3-THE R4-TFR R7-NPG C935T + R936H + Q939E + N971T + H972F + Q975R + S1079N + N1080P + E1083G (UniProt Q14671).
T6 sequence: T2 sequence with S252N, N253P, E256G

Positions count from the first letter of the chain named. The list shows a part of the results. For some of these results: At the low end of the ranking, values are background and their order means little. For some of these results: Construct or isoform of the protein are uncertain. Some results are limits rather than exact numbers.

In the case of “GGCUAGAACUAGUGGAUCCCCCGGCGCCCGGCGGCUCGAGCCCGGGUAAGUCUAGGUAGUCUGCAUGCCGCCGGGCGCCAUGCCUGCAGGUCGACUCUAGAAAACAUG”, the binding signal (log2 enrichment (interaction score)) in test [1] is less than -5.58; in test [2] it was -6.77; in test [3], -1.19; in test [4], -7.44; in test [5], -0.43.

Regarding “GGCUAGAACUAGUGGAUCCCCCGGCGCCCGGCGGCUCGAGCCCGGGUAAGUAGUUGAAGUCUGCAUGCCGCCGGGCGCCAUGCCUGCAGGUCGACUCUAGAAAACAUG”, the values for the binding signal (log2 enrichment (interaction score)) in test [1] and in test [2] were less than -5.45 and -6.87, respectively.

Regarding “GGCUAGAACUAGUGGAUCCCCCGGCGCCCGGCGGCUCGAGCCCGGGUAAGUUGAUGUCGUCUGCAUGCCGCCGGGCGCCAUGCCUGCAGGUCGACUCUAGAAAACAUG”, the binding signal (log2 enrichment (interaction score)) in test [1] was -5.89; in test [2], -7.02; in test [3] it was -1.6; in test [4], -7.13.

For the sequence “GGCUAGAACUAGUGGAUCCCCCGGCGCCCGGCGGCUCGAGCCCGGGUAAGGUAAAGUCGUCUGCAUGCCGCCGGGCGCCAUGCCUGCAGGUCGACUCUAGAAAACAUG”, the results for the binding signal (log2 enrichment (interaction score)) in test [1], in test [2] and in test [3] were -6.23, -6.18 and -1.84, respectively.

As to “GGCUAGAACUAGUGGAUCCCCCGGCGCCCGGCGGCUCGAGCCCGGGUAAGUCAACGUAGUCUGCAUGCCGCCGGGCGCCAUGCCUGCAGGUCGACUCUAGAAAACAUG”, the binding signal (log2 enrichment (interaction score)) is -5.64 in test [1]; -5.7 in test [2]; -2.86 in test [6]; -7.19 in test [4]; -0.29 in test [5].

Consider “GGCUAGAACUAGUGGAUCCCCCGGCGCCCGGCGGCUCGAGCCCGGGUAAGUGAACGAAGUCUGCAUGCCGCCGGGCGCCAUGCCUGCAGGUCGACUCUAGAAAACAUG”, for which the binding signal (log2 enrichment (interaction score)) in test [1] was -5.93; in test [2], -7.46; in test [3] it was less than -1.96; in test [5] it was -1.43.

Take “GGCUAGAACUAGUGGAUCCCCCGGCGCCCGGCGGCUCGAGCCCGGGUAAGUCAAGUUCGUCUGCAUGCCGCCGGGCGCCAUGCCUGCAGGUCGACUCUAGAAAACAUG”: the binding signal (log2 enrichment (interaction score)) in test [1] is -5.54; in test [2], -6.83; in test [3] it was -1.3; in test [5], -1.03.

As for “GGCUAGAACUAGUGGAUCCCCCGGCGCCCGGCGGCUCGAGCCCGGGUAAGCUUACAUAGUCUGCAUGCCGCCGGGCGCCAUGCCUGCAGGUCGACUCUAGAAAACAUG”, the binding signal (log2 enrichment (interaction score)) in test [1] was -5.81; in test [2], -7.5; in test [3], -0.75; in test [4], -7.46.

“GGCUAGAACUAGUGGAUCCCCCGGCGCCCGGCGGCUCGAGCCCGGGUAAGUGUCAGUAGUCUGCAUGCCGCCGGGCGCCAUGCCUGCAGGUCGACUCUAGAAAACAUG”: the binding signal (log2 enrichment (interaction score)) in test [1] was -5.01; in test [2] it was -7.06; in test [3], -1.39; in test [4], less than -7.89.

On to “GGCUAGAACUAGUGGAUCCCCCGGCGCCCGGCGGCUCGAGCCCGGGUAAGUGGAAGAAGUCUGCAUGCCGCCGGGCGCCAUGCCUGCAGGUCGACUCUAGAAAACAUG”, for which the binding signal (log2 enrichment (interaction score)) in test [1] is -4.99; in test [2], -6.33; in test [4], less than -8.3.

Consider “GGCUAGAACUAGUGGAUCCCCCGGCGCCCGGCGGCUCGAGCCCGGGUAAGUGUCAGCAGUCUGCAUGCCGCCGGGCGCCAUGCCUGCAGGUCGACUCUAGAAAACAUG”, for which the figures for the binding signal (log2 enrichment (interaction score)) in test [1], in test [2] and in test [4] were less than -5.66, -7.15 and less than -8.56, respectively.

For “GGCUAGAACUAGUGGAUCCCCCGGCGCCCGGCGGCUCGAGCCCGGGUAAGAUGGCGUCGUCUGCAUGCCGCCGGGCGCCAUGCCUGCAGGUCGACUCUAGAAAACAUG”, the binding signal (log2 enrichment (interaction score)) in test [1] is -6.42; in test [2], -6.87; in test [3], -1.51.

For the sequence “GGCUAGAACUAGUGGAUCCCCCGGCGCCCGGCGGCUCGAGCCCGGGUAAGUUUACAGAGUCUGCAUGCCGCCGGGCGCCAUGCCUGCAGGUCGACUCUAGAAAACAUG”, the binding signal (log2 enrichment (interaction score)) was -6.9 in test [1]; -7 in test [2]; -1.72 in test [3]; -7.35 in test [4]; -1.32 in test [5].

Regarding “GGCUAGAACUAGUGGAUCCCCCGGCGCCCGGCGGCUCGAGCCCGGGUAAGUGGAAUAAGUCUGCAUGCCGCCGGGCGCCAUGCCUGCAGGUCGACUCUAGAAAACAUG”, the values for the binding signal (log2 enrichment (interaction score)) in test [1], in test [2] and in test [4] were -5.9, less than -5.87 and -4.95, respectively.

These data come from paper PMC8384837.
